Data from article PMC10705702.

Target: T1, Iroquois-Homeobox 4 (IRX4) (human (endogenous in LNCaP)) (UniProt P78413)
T1 sequence: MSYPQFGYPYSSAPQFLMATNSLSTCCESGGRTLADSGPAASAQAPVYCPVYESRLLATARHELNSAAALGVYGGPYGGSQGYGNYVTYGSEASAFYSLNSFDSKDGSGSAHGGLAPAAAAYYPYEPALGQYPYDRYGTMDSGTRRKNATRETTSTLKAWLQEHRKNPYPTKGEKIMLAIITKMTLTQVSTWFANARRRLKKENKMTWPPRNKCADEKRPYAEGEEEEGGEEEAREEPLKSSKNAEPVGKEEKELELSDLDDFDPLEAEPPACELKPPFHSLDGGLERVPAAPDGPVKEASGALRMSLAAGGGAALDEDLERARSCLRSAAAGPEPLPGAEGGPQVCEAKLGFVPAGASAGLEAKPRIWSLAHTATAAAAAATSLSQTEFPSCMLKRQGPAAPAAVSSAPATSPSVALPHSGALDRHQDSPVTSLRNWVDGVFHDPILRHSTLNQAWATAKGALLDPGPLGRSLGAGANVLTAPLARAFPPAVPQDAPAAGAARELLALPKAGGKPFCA
Experiment: affinity purification with mass spectrometry; IP with anti-IRX4 antibody (Abcam ab123542) and protein G magnetic beads from LNCaP nuclear enriched lysate, 4 °C overnight, IgG control; LC-MS/MS; proteins identified in at least two replicates, cut-off intensity > E+07

binding: binds
B1: FOXA1, also known as hepatocyte nuclear factor 3α (HNF-3α) (protein, UniProt P55317 1-472)
chain: MLGTVKMEGHETSDWNSYYADTQEAYSSVPVSNMNSGLGSMNSMNTYMTMNTMTTSGNMTPASFNMSYANPGLGAGLSPGAVAGMPGGSAGAMNSMTAAGVTAMGTALSPSGMGAMGAQQAASMNGLGPYAAAMNPCMSPMAYAPSNLGRSRAGGGGDAKTFKRSYPHAKPPYSYISLITMAIQQAPSKMLTLSEIYQWIMDLFPYYRQNQQRWQNSIRHSLSFNDCFVKVARSPDKPGKGSYWTLHPDSGNMFENGCYLRRQKRFKCEKQPGAGGGGGSGSGGSGAKGGPESRKDPSGASNPSADSPLHRGVHGKTGQLEGAPAPGPAASPQTLDHSGATATGGASELKTPASSTAPPISSGPGALASVPASHPAHGLAPHESQLHLKGDPHYSFNHPFSINNLMSSSEQQHKLDFKAYEQALQYSPYGSTLPASLPLGSASVTTRSPIEPSALEPAYYQGVYSRPVLNTS

No constants are given. Whether binding was seen depends on the method and setting. In cells and extracts the contact can be indirect. A yes stands for co-enrichment or nearness to the bait. Other partners may have been found.
